No constants are given. Whether binding was seen depends on the method and setting. Binding seen in cells or lysates may run through a third protein. Some results given as binding are weak or reduced against the parent protein; the word gives no strength. For some of these results: Where a sequence is shown, tags or fusion partners need not be part of it.
Columns and labels:
[1] = target: T1, endogenous DAX1 (human (endogenous in PC3 and DU145)) (UniProt P51843); experiment: co-IP; endogenous proteins; 2 mg of PC3 or DU145 cell lysate; immunoprecipitation with anti-DAX1 (normal rabbit IgG as negative control); Western blot for GLI1 or GLI2
T1 sequence: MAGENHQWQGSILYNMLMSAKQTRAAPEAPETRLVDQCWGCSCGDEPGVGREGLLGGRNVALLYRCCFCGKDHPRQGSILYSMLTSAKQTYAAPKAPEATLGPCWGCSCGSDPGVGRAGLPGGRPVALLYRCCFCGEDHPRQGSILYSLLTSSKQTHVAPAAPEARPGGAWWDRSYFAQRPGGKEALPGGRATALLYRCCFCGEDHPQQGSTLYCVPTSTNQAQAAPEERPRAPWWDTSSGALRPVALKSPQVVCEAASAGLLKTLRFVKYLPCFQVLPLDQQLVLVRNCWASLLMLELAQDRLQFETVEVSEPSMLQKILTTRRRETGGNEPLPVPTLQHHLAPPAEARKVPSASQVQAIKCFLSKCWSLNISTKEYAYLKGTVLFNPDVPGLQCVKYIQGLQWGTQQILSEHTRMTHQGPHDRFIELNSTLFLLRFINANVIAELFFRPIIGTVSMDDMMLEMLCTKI

Amino acid sequences for entries named in this document (tags omitted).
UniProt P08151: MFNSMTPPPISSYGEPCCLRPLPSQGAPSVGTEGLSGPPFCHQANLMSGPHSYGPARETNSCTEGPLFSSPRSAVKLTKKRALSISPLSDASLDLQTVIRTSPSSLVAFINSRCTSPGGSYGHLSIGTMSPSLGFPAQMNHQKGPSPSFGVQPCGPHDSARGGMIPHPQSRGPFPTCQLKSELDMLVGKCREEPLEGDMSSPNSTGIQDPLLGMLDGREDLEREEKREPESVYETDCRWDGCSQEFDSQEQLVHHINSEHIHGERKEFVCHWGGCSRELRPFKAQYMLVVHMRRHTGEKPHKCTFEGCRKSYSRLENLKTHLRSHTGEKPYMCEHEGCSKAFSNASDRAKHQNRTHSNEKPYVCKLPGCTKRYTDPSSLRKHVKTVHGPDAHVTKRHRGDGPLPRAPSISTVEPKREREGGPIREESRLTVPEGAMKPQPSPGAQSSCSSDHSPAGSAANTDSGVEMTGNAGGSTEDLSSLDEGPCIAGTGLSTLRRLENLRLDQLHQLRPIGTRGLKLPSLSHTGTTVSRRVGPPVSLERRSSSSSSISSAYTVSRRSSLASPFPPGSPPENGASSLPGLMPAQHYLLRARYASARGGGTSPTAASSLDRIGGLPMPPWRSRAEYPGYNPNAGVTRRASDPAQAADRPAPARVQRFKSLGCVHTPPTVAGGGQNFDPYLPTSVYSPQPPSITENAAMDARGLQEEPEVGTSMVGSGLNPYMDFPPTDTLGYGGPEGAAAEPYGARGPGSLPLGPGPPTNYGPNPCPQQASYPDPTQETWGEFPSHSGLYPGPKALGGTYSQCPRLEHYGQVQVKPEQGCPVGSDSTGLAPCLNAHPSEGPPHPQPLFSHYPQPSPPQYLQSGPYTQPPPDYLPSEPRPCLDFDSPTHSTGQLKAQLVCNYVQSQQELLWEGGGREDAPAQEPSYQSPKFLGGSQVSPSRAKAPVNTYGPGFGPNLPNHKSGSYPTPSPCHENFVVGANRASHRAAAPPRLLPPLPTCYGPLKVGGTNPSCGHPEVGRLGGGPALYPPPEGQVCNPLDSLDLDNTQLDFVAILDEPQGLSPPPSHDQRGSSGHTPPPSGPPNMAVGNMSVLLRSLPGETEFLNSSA
UniProt P10070: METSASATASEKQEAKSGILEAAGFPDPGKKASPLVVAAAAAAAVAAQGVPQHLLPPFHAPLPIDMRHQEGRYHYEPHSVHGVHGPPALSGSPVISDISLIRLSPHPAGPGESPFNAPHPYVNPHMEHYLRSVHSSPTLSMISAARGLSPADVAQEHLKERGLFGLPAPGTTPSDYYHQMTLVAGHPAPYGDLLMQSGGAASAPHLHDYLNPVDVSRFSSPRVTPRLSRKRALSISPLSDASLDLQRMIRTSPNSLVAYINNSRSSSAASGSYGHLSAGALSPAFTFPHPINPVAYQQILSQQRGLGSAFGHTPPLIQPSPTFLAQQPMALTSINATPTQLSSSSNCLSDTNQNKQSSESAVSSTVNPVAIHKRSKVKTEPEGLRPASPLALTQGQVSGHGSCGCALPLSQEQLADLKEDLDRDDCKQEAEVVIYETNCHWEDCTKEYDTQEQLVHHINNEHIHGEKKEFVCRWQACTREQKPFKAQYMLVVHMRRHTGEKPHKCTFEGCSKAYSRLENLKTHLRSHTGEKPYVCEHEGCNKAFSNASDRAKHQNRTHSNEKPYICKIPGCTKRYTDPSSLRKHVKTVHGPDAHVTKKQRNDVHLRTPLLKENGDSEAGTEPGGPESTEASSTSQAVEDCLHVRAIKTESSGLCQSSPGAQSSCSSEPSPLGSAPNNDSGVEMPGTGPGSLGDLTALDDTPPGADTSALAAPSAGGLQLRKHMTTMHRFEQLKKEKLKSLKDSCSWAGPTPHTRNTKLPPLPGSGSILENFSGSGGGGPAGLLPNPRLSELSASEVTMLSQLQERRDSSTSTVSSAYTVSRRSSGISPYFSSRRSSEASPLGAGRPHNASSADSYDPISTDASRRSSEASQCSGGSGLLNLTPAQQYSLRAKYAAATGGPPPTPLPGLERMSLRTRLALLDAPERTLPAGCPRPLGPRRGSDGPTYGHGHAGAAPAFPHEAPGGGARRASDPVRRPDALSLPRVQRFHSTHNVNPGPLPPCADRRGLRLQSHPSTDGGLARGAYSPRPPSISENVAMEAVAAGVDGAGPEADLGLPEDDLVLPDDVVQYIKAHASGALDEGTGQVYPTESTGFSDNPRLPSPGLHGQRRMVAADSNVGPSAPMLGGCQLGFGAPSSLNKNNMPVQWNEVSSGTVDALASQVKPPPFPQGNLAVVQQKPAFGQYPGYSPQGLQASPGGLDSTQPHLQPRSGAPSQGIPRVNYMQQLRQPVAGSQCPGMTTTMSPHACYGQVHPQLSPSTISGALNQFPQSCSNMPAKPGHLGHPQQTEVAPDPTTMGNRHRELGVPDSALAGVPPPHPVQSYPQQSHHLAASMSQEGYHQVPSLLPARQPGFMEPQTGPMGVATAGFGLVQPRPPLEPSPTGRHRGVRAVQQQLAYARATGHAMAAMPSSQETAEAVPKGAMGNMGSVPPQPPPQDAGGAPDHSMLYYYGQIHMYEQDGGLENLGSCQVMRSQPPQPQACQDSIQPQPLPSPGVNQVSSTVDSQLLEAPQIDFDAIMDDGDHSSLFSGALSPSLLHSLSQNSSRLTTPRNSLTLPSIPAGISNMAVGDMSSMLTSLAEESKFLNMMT

[2] = target: T2, Flag-tagged DAX1 (dosage-sensitive sex reversal adrenal hypoplasia congenital critical region on X chromosome, gene 1) (UniProt P51843); experiment: co-IP; HEK293 cells co-transfected for 48 h; lysis in 50 mM Tris-HCl pH 7.4, 150 mM NaCl, 1 mM EDTA, 1% Triton X-100, 1 mM PMSF; M2 FLAG-agarose, 16 h at 4 °C, to precipitate Flag-DAX1; blots with anti-HA, anti-MYC or anti-FLAG
T2 sequence: T1 sequence

Row | binding [1] | binding [2] | Substance
1 | binds | – | endogenous GLI1 (from UniProt P08151 1-1106)
2 | – | binds | MYC-tagged GLI2 (from UniProt P10070 1-1586)
3 | – | binds | HA-tagged GLI1 (from UniProt P08151 1-1106)
4 | binds | – | endogenous GLI2 (from UniProt P10070 1-1586)

From paper PMC10378570
